Source: PMC10878145

Biological target: T1, PDK1 (UniProt O15530)
T1 sequence: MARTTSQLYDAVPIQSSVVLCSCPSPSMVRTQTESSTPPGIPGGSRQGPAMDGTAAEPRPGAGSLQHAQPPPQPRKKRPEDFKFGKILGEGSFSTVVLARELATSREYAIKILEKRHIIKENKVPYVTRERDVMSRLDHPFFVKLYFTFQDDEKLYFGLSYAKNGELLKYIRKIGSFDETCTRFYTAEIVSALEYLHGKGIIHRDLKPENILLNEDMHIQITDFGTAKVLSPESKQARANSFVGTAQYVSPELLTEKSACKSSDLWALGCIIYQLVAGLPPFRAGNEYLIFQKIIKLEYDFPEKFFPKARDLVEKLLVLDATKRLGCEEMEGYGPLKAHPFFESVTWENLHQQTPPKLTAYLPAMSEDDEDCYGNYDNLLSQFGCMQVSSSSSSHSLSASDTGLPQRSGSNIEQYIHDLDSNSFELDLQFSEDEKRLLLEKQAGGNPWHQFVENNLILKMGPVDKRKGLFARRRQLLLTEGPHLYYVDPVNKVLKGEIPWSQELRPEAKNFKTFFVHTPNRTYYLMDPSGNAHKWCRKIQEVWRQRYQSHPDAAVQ
Experiment: co-IP; exogenous co-IP of transfected proteins in HEK-293T cells; lysis buffer 150 mM NaCl, 150 mM Tris, 0.4% NP-40, pH 7.4; antibody 4-6 hrs at 4 °C, protein A magnetic beads 2 hrs at 4 °C; immunoblot; some experiments quantitative with UPP1-WT or UPP1-R94A co-overexpressed, one with SC79

AKT-HA (AKT-FL, wild-type AKT) (human) (enzyme)
binding: binds

These are yes or no findings as the source states them, for the method shown. Binding seen in cells or lysates may run through a third protein. Binding calls can cover weak binding; strength is not graded here.
